# For part of these data: Expression grades refer to the transcript from which the peptide derives; gene names, where given, were looked up from the sequence.
# What was measured:
# [1] = system: source genes (mRNA); assay: Gene and exon expression of source genes, TCGA tumor samples compared with normal tissue samples (Lonsdale, 2013) (Table 17); parameters: species or system human; settings: for Target coverage: over-expression category of source gene, BLCA: Bladder urothelial carcinoma (N = 408); for Target coverage: over-expression category of source gene, READ: Colon and rectal adenocarcinoma (N = 167); for Target coverage: over-expression category of source gene, COAD: Colon and rectal adenocarcinoma (N = 462); for Target coverage: over-expression category of source gene, LIHC: Liver hepatocellular carcinoma (N = 374); for Target coverage: over-expression category of source gene, LUSC: Lung squamous cell carcinoma (N = 503); for Target coverage: over-expression category of source gene, DLBC: Lymphoid neoplasm diffuse large B-cell lymphoma (N = 48); for Target coverage: over-expression category of source gene, UCEC: Uterine corpus endometrial carcinoma (N = 546); for Target coverage: over-expression category of source gene, LAML: Acute Myeloid Leukemia (N = 173); for Target coverage: over-expression category of source gene, BRCA: Breast cancer (N = 1104), cutoff more than 2-fold above highest 75% percentile of high and medium risk normal tissue samples; for Target coverage: over-expression category of source gene, GBM: Glioblastoma multiforme (N = 169); for Target coverage: over-expression category of source gene, LUAD: Lung adenocarcinoma (N = 517); for Target coverage: over-expression category of source gene, OV: Ovarian serous cystadenocarcinoma (N = 309); for Target coverage: over-expression category of source gene, STAD: Stomach adenocarcinoma (N = 415)
# [2] = system: HLA-A*02; assay: Identification and relative LC-MS quantitation of HLA-A*02-presented tumor-associated peptides on tissue samples (presentation profiles, Tables 13A, 13B, 15, FIG. 1); parameters: species or system human; key to Presentation score NHL / Presentation score CLL / Presentation score BRCA / Presentation score AML / Presentation score GB / Presentation score NSCLC / Presentation score GBC_CCC / Presentation score UEC / Presentation score MEL / Presentation score OSCAR / Presentation score GC / Presentation score UBC / Presentation score OC / Presentation score RCC / Presentation score CRC / Presentation score PCA / Presentation score HCC / Presentation score PC / Presentation score SCLC: specifically presented on tumors (++++); very highly over-presented on tumors compared to a panel of normal tissues (+++); highly over-presented on tumors compared to a panel of normal tissues (++); over-presented on tumors compared to a panel of normal tissues (+); settings: for Presentation score AML: acute myeloid leukemia (N = 18) vs panel of normal tissues (N = 262); for Presentation score NHL: non-Hodgkin lymphoma (N = 18) vs panel of normal tissues (N = 262); for Peptide Presentation on cancer entities: HLA-A*02-binding tumor-associated peptides; for Presentation score NSCLC: non-small cell lung cancer (N = 90) vs panel of normal tissues (N = 262); for Presentation score PCA: prostate cancer and benign prostate hyperplasia (N = 39) vs panel of normal tissues (N = 262); for Presentation score OC: ovarian cancer (N = 20) vs panel of normal tissues (N = 262)
# [3] = system: source genes (mRNA); assay: Expression profiling of source genes by in-house RNASeq of tumor and normal tissues (Table 18, FIG. 2); parameters: species or system human; key: very highly over-expressed in tumors compared to a panel of normal tissues (+++); highly over-expressed in tumors compared to a panel of normal tissues (++); over-expressed in tumors compared to a panel of normal tissues (+); settings: source gene of peptide; for Expression score AML: acute myeloid leukemia (N = 11) vs panel of normal tissues; for Expression score NHL: non-Hodgkin lymphoma (N = 10) vs panel of normal tissues; for Expression score OC: ovarian cancer (N = 12) vs panel of normal tissues
# [4] = cutoff more than 2-fold above highest 75% percentile of normal tissue samples
# [5] = Table 13A, cancer entities on which the peptide was found presented
# [6] = Table 13B, presentation on additional cancer entities
Substance,"Target coverage: over-expression category of source gene, BLCA [1, 4]","Target coverage: over-expression category of source gene, READ [1, 4]","Target coverage: over-expression category of source gene, COAD [1, 4]","Target coverage: over-expression category of source gene, LIHC [1, 4]","Target coverage: over-expression category of source gene, LUSC [1, 4]","Target coverage: over-expression category of source gene, DLBC [1, 4]","Target coverage: over-expression category of source gene, UCEC [1, 4]",Presentation score AML ([2]; HLA-A*02 peptides),Presentation score NHL ([2]; HLA-A*02 peptides),"Peptide Presentation on cancer entities [2, 5]","Peptide Presentation on cancer entities [2, 6]",Expression score AML [3],Expression score NHL [3],Expression score OC [3],"Target coverage: over-expression category of source gene, LAML [1, 4]","Target coverage: over-expression category of source gene, BRCA [1]","Target coverage: over-expression category of source gene, GBM [1, 4]","Target coverage: over-expression category of source gene, LUAD [1, 4]",Presentation score NSCLC ([2]; HLA-A*02 peptides),Presentation score OC ([2]; HLA-A*02 peptides),other results
53: peptide found in PUS1 (gene looked up) (KMVGLVVAI; listed as Homo sapiens) [compound 53],"C (>=5% of tumors above the cutoff, but <20%)","B (>= 20% of tumors above the cutoff, but <50%)","B (>= 20% of tumors above the cutoff, but <50%)","C (>=5% of tumors above the cutoff, but <20%)","C (>=5% of tumors above the cutoff, but <20%)",A (>=50% of tumors above the cutoff),"B (>= 20% of tumors above the cutoff, but <50%)",+++,+++,"CLL, AML, NHL",MEL,+,+,+,,,,,,,"Presentation score CLL ([2]; HLA-A*02 peptides, chronic lymphocytic leukemia (N = 17) vs panel of normal tissues (N = 262)): +++; Expression score OSCAR ([3]; esophageal cancer incl. gastric-esophageal junction (N = 11) vs panel of normal tissues): +; Expression score UBC ([3]; urinary bladder cancer (N = 10) vs panel of normal tissues): +"
54: peptide found in FAM114A2 (gene looked up) (VLNPLITAV; listed as Homo sapiens) [compound 54],"B (>= 20% of tumors above the cutoff, but <50%)","B (>= 20% of tumors above the cutoff, but <50%)","B (>= 20% of tumors above the cutoff, but <50%)","B (>= 20% of tumors above the cutoff, but <50%)","B (>= 20% of tumors above the cutoff, but <50%)",A (>=50% of tumors above the cutoff),"B (>= 20% of tumors above the cutoff, but <50%)",+++,+++,"NSCLC, PCA, AML, NHL","HCC, SCLC, UEC, MEL, RCC",,,,A (>=50% of tumors above the cutoff),A (>=50% of tumors above the cutoff),A (>=50% of tumors above the cutoff),A (>=50% of tumors above the cutoff),+++,,"Target coverage: over-expression category of source gene, CHOL ([1]; Cholangiocarcinoma (N = 36), cutoff more than 2-fold above highest 75% percentile of normal tissue samples): A (>=50% of tumors above the cutoff); Target coverage: over-expression category of source gene, KIRC ([1]; Clear cell kidney carcinoma (N = 534), cutoff more than 2-fold above highest 75% percentile of normal tissue samples): A (>=50% of tumors above the cutoff); Target coverage: over-expression category of source gene, ESCA ([1]; Esophageal cancer (N = 185), cutoff more than 2-fold above highest 75% percentile of normal tissue samples): B (>= 20% of tumors above the cutoff, but <50%); Target coverage: over-expression category of source gene, KICH ([1]; Kidney chromophobe (N = 66), cutoff more than 2-fold above highest 75% percentile of normal tissue samples): A (>=50% of tumors above the cutoff); Target coverage: over-expression category of source gene, LGG ([1]; Lower grade glioma (N = 534), cutoff more than 2-fold above highest 75% percentile of normal tissue samples): A (>=50% of tumors above the cutoff); Target coverage: over-expression category of source gene, OV [1, 4]: B (>= 20% of tumors above the cutoff, but <50%); Target coverage: over-expression category of source gene, PAAD ([1]; Pancreatic ductal adenocarcinoma (N = 179), cutoff more than 2-fold above highest 75% percentile of normal tissue samples): A (>=50% of tumors above the cutoff); Target coverage: over-expression category of source gene, KIRP ([1]; Papillary kidney carcinoma (N = 291), cutoff more than 2-fold above highest 75% percentile of normal tissue samples): A (>=50% of tumors above the cutoff); Target coverage: over-expression category of source gene, PRAD ([1]; Prostate adenocarcinoma (N = 498), cutoff more than 2-fold above highest 75% percentile of normal tissue samples): A (>=50% of tumors above the cutoff); Target coverage: over-expression category of source gene, SKCM ([1]; Skin cutaneous melanoma (N = 473), cutoff more than 2-fold above highest 75% percentile of normal tissue samples): A (>=50% of tumors above the cutoff); Target coverage: over-expression category of source gene, STAD [1, 4]: B (>= 20% of tumors above the cutoff, but <50%); Presentation score PCA ([2]; HLA-A*02 peptides): +++; Expression score RCC ([3]; renal cell carcinoma (N = 10) vs panel of normal tissues): +"
55: peptide found in NEK10 (gene looked up) (SLATKIVEA; listed as Homo sapiens) [compound 55],,,,,,,,+++,,"PCA, OC, BRCA, AML",,,,,"C (>=5% of tumors above the cutoff, but <20%)","B (>= 20% of tumors above the cutoff, but <50%)",,,,+++,"Presentation score BRCA ([2]; HLA-A*02 peptides, breast cancer (N = 17) vs panel of normal tissues (N = 262)): +++; Presentation score PCA ([2]; HLA-A*02 peptides): +++; Expression score BRCA ([3]; BRCA tumors vs panel of normal tissues): +"
56: peptide found in CD96 (gene looked up) (FLHDEKEGIYI; listed as Homo sapiens) [compound 56],,,,,,"C (>=5% of tumors above the cutoff, but <20%)",,,++++,"NSCLC, OC, NHL",AML,+,+,,A (>=50% of tumors above the cutoff),,,,++++,++++,"Target coverage: over-expression category of source gene, STAD [1, 4]: C (>=5% of tumors above the cutoff, but <20%)"
57: peptide found in BCAT1 (gene looked up) (TVFTDHMLTV; listed as Homo sapiens) [compound 57],,,,,"C (>=5% of tumors above the cutoff, but <20%)","C (>=5% of tumors above the cutoff, but <20%)","C (>=5% of tumors above the cutoff, but <20%)",,++++,"NSCLC, OSCAR, OC, NHL",,,+,+++,"B (>= 20% of tumors above the cutoff, but <50%)",,"C (>=5% of tumors above the cutoff, but <20%)","C (>=5% of tumors above the cutoff, but <20%)",++++,++++,"Target coverage: over-expression category of source gene, OV [1, 4]: B (>= 20% of tumors above the cutoff, but <50%); Presentation score OSCAR ([2]; HLA-A*02 peptides, esophageal cancer, including cancer of the gastric-esophageal junction (N = 17) vs panel of normal tissues (N = 262)): ++++; Expression score GB ([3]; glioblastoma (N = 24) vs panel of normal tissues): ++; Expression score NSCLC ([3]; non-small cell lung cancer (N = 11) vs panel of normal tissues): ++; Expression score UEC ([3]; uterine cancer (N = 10) vs panel of normal tissues): +++"

# — patent US20170189504A1, “NOVEL PEPTIDES AND COMBINATION OF PEPTIDES FOR USE IN IMMUNOTHERAPY AGAINST VARIOUS CANCERS” (immatics biotechnologies GmbH, priority 2015, published 2017)
